Measurements: paper PMC10683014, “Amino Acids as Chelating Ligands for Platinum: Enhanced Stability in an Aqueous Environment Promoted by Biocompatible Molecules” (Journal of Medicinal Chemistry, 2023)

Assays:
[1] = test system: MDA-MB-231 breast cancer cell line; assay: MTT metabolic activity (cytotoxicity) assay, MDA-MB-231; type: cell-based; details: 25 µM; Sidak's multiple comparisons test
Method: (§1) In order to determine the antitumor activity of the platinum complexes, in vitro cytotoxicity tests were performed. Compounds 1–4 were tested with cisplatin as a reference on the breast cancer cell line MCF-7 and the colon carcinoma cell line HT-29. Complexes 1, 4, and 5, as well as the ligand (but-3-en-1-yl 2-acetoxybenzoate, 6) were additionally evaluated on MDA-MB-231 cells and A2780cis cells, also using cisplatin as a reference. The metabolic activity as an indicator of cytotoxicity was determined by a classical 3-(4,5-dimethylthiazol-2-yl)-2,5-diphenyltetrazoliumbromid (MTT) assay.
(§2) The cell lines A2780cis and MDA-MB-231 were cultivated in RPMI 1640 without phenol red (PAN Biotech, Aidenbach, Germany), supplemented with L-glutamine (2 mM), 100 μg/mL penicillin, 100 μg/mL streptomycin, and FCS (10%) (all from Invitrogen Corporation, Gibco, Paisley, Scotland) at 37 °C in a 5% CO2/95% air atmosphere, and passaged twice per week. To maintain resistance, A2780cis cells were incubated every second week with cisplatin (1 μM). The cell lines MCF-7 and HT-29 were grown in DMEM without phenol red (PAN Biotech, Aidenbach, Germany), containing L-glutamine, 100 μg/mL penicillin, 100 μg/mL streptomycin, sodium pyruvate ([…]) (PAN Biotech), and FCS (10%) under the same conditions as the other cell lines.
The exponentially growing cell lines were seeded at a density of 2000 cells/well for MCF-7 cells, 4000 cells/well for HT-29 cells and MDA-MB-231 cells, and 8000 cells/well for A2780cis cells, respectively, into clear flat-bottom 96-well plates in triplicates. Following 24 h of incubation for adherence at 37 °C in a humidified atmosphere (5% CO2/95% air), the compounds were added to reach the desired concentrations between 10 and 100 μM, respectively. All stock solutions were prepared in dimethylformamide at a concentration of 100 mM and were then diluted with the respective cell-culture medium to the appropriate concentrations. After another 72 h of incubation, the cellular metabolic activity was measured by employing a MTT assay. Hereby, the yellow tetrazolium salt is converted to a purple formazan salt by the functioning mitochondria. These purple crystals are then dissolved in DMSO and can be quantified via absorption measurements at 570 and 420 nm. The optical density of the particular medium was subtracted in order to exclude the unspecific staining caused by the FCS-containing medium. The values were calculated with Excel 2019 (Microsoft, Redmond, WA, USA) using nonlinear regression and the decal logarithm of the inhibitor versus variable slope equation, while the top constraint was set to 100%.

[2] = test system: A2780cis ovarian carcinoma cell line (cisplatin-resistant); assay: MTT metabolic activity (cytotoxicity) assay, A2780cis; type: cell-based; details: 25 µM; Sidak's multiple comparisons test
Method: as §1, §2
The exponentially growing cell lines were seeded at a density of 2000 cells/well for MCF-7 cells, 4000 cells/well for HT-29 cells and MDA-MB-231 cells, and 8000 cells/well for A2780cis cells, respectively, into clear flat-bottom 96-well plates in triplicates. […] After another 72 h of incubation, the cellular metabolic activity was measured by employing a MTT assay. […] These purple crystals are then dissolved in DMSO and can be quantified via absorption measurements at 570 and 420 nm. […] The values were calculated with Excel 2019 (Microsoft, Redmond, WA, USA) using nonlinear regression and the decal logarithm of the inhibitor versus variable slope equation, while the top constraint was set to 100%.

Compound	Mean Diff of residual metabolic activity, cisplatin vs. compound, MDA-MB-231 [1]	Mean Diff of residual metabolic activity, cisplatin vs. compound, A2780cis [2]
C=C.C[C@H](N)C(=O)[O][Pt][Cl] [1a, (Ethylene,N-trans)(L-alaninato-N,O)chlorido(η^2-ethene)platinate(II)]	-100,5%	-102,1%
C=CCCOC(=O)c1ccccc1OC(C)=O.[Cl][Pt-]([Cl])[Cl].[K+] [compound 5, potassium {trichlorido[η^2-(but-3-en-1-yl)-2-acetoxybenzoate]platinate(II)}]	-90,69%	-107,5%
C=CCCOC(=O)c1ccccc1OC(C)=O [compound 6, but-3-en-1-yl 2-acetoxybenzoate]	-91,45%	-103,5%
(Ethylene,N-trans)(L-alaninato-N,O)chlorido(η^2-(but-3-en-1-yl)-2-acetoxybenzoate)platinate(II) [compound 4]	0,996%	
